Consider 16 compounds from PubChem BioAssay AID200 (DTP/NCI, 2004).

The list does not hold the whole screen: it gathers tests that were run many times, whatever their T/C, doses with no T/C, and many T/C values between a quarter and a half above the control. Other doses and runs of a compound stand elsewhere. T/C gives the treated animals as a percentage of the vehicle group. Some entries give survivors of the animals treated and no T/C: the source holds a T/C of zero for them, seemingly a mark for toxic or unscored doses. Some survivor counts are full or nearly so, which does not show that the dose was tolerated: survival well below the control is almost never listed, so the zero probably covers shortened survival too. Survivors were counted at the toxicity check, usually on the fifth day, unless a day is given; later deaths do not show. Schedules are NCI's codes, read here as Q, the interval in days (D) or hours (H), X, the number of doses. Some doses were run more than once; the results are listed from low to high. Where survival is the endpoint, this PubChem deposit counts one and a half times the control or more as active, and values a quarter to a half above the control carry no call in these data; other NCI protocols may use other cut-offs. Some T/C values are followed by the survivors on the day toxicity was checked, most often the fifth; without a count, all were alive then. Where a SMILES comes first, the peptide text is derived from it. [ ]: non-standard residue; d: D form. Tyr(3,5-I2) = N[CH](Cc1cc(I)c(O)c(I)c1)C(=O)O

For the experiment, the system named is B6C3F1 mice, B16 melanoma ip, median survival T/C. As to the kind of experiment: NCI In Vivo Anticancer Drug Screen. Data for tumor model B16 Melanoma (intraperitoneal) in B6C3F1 mice. As to conditions: T/C endpoint: median survival time, higher T/C = longer survival. The method, boiled down:
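Transplantable tumor in mice; treated vs vehicle control groups; survival or tumor size measured; value = T/C ratio.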

[1] abbreviates: dose: 100.0 mg/kg/injection, schedule: Q01DX009 (ip), vehicle: Klucel (hydroxypropylcellulose) (HPC).
Setting [2] is: dose: 200.0 mg/kg/injection, schedule: Q01DX009 (ip), vehicle: Klucel (hydroxypropylcellulose) (HPC).
Setting [3] is: dose: 400.0 mg/kg/injection, schedule: Q01DX009 (ip), vehicle: Klucel (hydroxypropylcellulose) (HPC).
Setting [4] is: dose: 50.0 mg/kg/injection, schedule: Q01DX009 (ip), vehicle: saline.

Turning to `O=NN(CCCl)C(=O)NCCCl`, the T/C is 113, 118, 119, 121 % of control (dose: 1.5 mg/kg/injection, schedule: Q01DX009 (ip), vehicle: saline + alcohol); 129 and 135 % of control (dose: 3.0 mg/kg/injection, schedule: Q01DX009 (ip), vehicle: alcohol); 114, 118, 125, 138 % of control [7 of 8 alive] (dose: 3.0 mg/kg/injection, schedule: Q01DX009 (ip), vehicle: saline + alcohol); 138 % of control (dose: 5.0 mg/kg/injection, schedule: Q01DX005 (ip), vehicle: saline + alcohol); 148, 157, 159, 164 % of control (dose: 6.0 mg/kg/injection, schedule: Q01DX009 (ip), vehicle: saline + alcohol); 127 % of control (dose: 10.0 mg/kg/injection, schedule: Q01DX005 (ip), vehicle: saline + alcohol). Also, the T/C runs as follows: (dose: 12.0 mg/kg/injection, schedule: Q01DX009 (ip), vehicle: saline + alcohol) 109 [9 of 10 alive], 113, 172 [9 of 10 alive], 193 % of control; (dose: 15.0 mg/kg/injection, schedule: Q01DX001 (ip), vehicle: saline) 137 % of control [6 of 7 alive]; (dose: 20.0 mg/kg/injection, schedule: Q01DX001 (iv), vehicle: saline + alcohol) 129 % of control; (dose: 32.0 mg/kg/injection, schedule: Q01DX001 (ip), vehicle: saline) 148 % of control. In addition, the survivor count runs as follows: (dose: 12.0 mg/kg/injection, schedule: Q01DX009 (ip), vehicle: alcohol) 9 of 10 and 10 of 10; (dose: 20.0 mg/kg/injection, schedule: Q01DX005 (ip), vehicle: saline + alcohol) 10 of 10; (dose: 20.0 mg/kg/injection, schedule: Q01DX005 (iv), vehicle: saline + alcohol) 10 of 10; (dose: 24.0 mg/kg/injection, schedule: Q01DX009 (ip), vehicle: alcohol) 10 of 10; (dose: 24.0 mg/kg/injection, schedule: Q01DX009 (ip), vehicle: other) 9 of 10; (dose: 24.0 mg/kg/injection, schedule: Q01DX009 (ip), vehicle: saline + alcohol) 9 of 10, 10 of 10, 8 of 8. The survivor count runs as follows: (dose: 40.0 mg/kg/injection, schedule: Q01DX005 (ip), vehicle: saline + alcohol) 10 of 10; (dose: 40.0 mg/kg/injection, schedule: Q01DX005 (iv), vehicle: saline + alcohol) 10 of 10; (dose: 80.0 mg/kg/injection, schedule: Q01DX001 (ip), vehicle: saline + alcohol) 9 of 10; (dose: 80.0 mg/kg/injection, schedule: Q01DX001 (iv), vehicle: saline + alcohol) 10 of 10.
For the compound `Cn1cc(C2NC(=O)c3ccccc3N2)c2ccccc21` (stereo not given), the T/C by setting is: (dose: 50.0 mg/kg/injection, schedule: Q01DX009 (ip), vehicle: Klucel (hydroxypropylcellulose) (HPC)) 132 % of control; under setting [1], 131 and 140 % of control [9 of 10 alive]; under setting [2], 144 % of control; under setting [3], 126 % of control. Moreover, the survivor count runs as follows: under setting [3], 2 of 7; (dose: 800.0 mg/kg/injection, schedule: Q01DX009 (ip), vehicle: Klucel (hydroxypropylcellulose) (HPC)) 0 of 7.
`CCCC[C@H]1C(=O)O[C@H](C)[C@H](NC(=O)c2cccc(NC=O)c2O)C(=O)O[C@@H](C)[C@@H]1OC(=O)CC(C)C`: the survivor count is 7 of 10 and 9 of 10 (dose: 1.0 mg/kg/injection, schedule: Q01DX009 (ip), vehicle: Klucel (hydroxypropylcellulose) (HPC)); 0 of 10 and 9 of 10 (dose: 2.0 mg/kg/injection, schedule: Q01DX009 (ip), vehicle: Klucel (hydroxypropylcellulose) (HPC)); 10 of 10 (dose: 4.0 mg/kg/injection, schedule: Q01DX009 (ip), vehicle: Klucel (hydroxypropylcellulose) (HPC)).
Consider `CCCC(NC(=O)OCc1ccccc1)C(=O)NCC(=O)O` (stereo not given) (HELM PEPTIDE1{[O=C(OCc1ccccc1)[*:2]].[CCCC(N[*:1])C(=O)[*:2]].G}$$$$V2.0), for which the survivor count was 10 of 10 under setting [1], 10 of 10 under setting [2] and 10 of 10 under setting [3].
On to `C=C(C)[C@H]1CN[C@H](C(=O)O)[C@H]1CC(=O)O`, for which the survivor count by setting is: under setting [4], 5 of 10; (dose: 100.0 mg/kg/injection, schedule: Q01DX009 (ip), vehicle: saline) 0 of 10.
With `CCCCN(CCCC)CCNc1ccc(Cl)c2oc3cc(C)ccc3c(=O)c12`, for the setting “dose: 200.0 mg/kg/injection, schedule: Q01DX009 (ip), vehicle: saline”, the survivor count is 10 of 10.
As for `NNC(=S)N/N=C/c1ccccn1`, the survivor count runs as follows: (dose: 25.0 mg/kg/injection, schedule: Q01DX009 (ip), vehicle: suspension in saline) 8 of 10; under setting [4], 0 of 10; (dose: 50.0 mg/kg/injection, schedule: Q01DX009 (ip), vehicle: suspension in saline) 0 of 10.
With `C1CN(P2(N3CC3)=NP(N3CC3)(N3CC3)=NP(N3CC3)(N3CC3)=N2)CCO1` (stereo not given), the T/C (dose: 4.0 mg/kg/injection, schedule: Q01DX009 (ip), vehicle: saline) was 131 % of control; the T/C (dose: 4.0 mg/kg/injection, schedule: Q02DX009 (ip), vehicle: saline) is 133 % of control; the T/C (dose: 8.0 mg/kg/injection, schedule: Q01DX009 (ip), vehicle: saline) was 148 % of control; the T/C (dose: 16.0 mg/kg/injection, schedule: Q01DX009 (ip), vehicle: saline) is 137 % of control [9 of 10 alive]; the T/C (dose: 16.0 mg/kg/injection, schedule: Q02DX009 (ip), vehicle: saline) is 132 % of control. The survivor count by setting is: (dose: 64.0 mg/kg/injection, schedule: Q01DX009 (ip), vehicle: saline) 9 of 10 and 10 of 10; (dose: 64.0 mg/kg/injection, schedule: Q02DX009 (ip), vehicle: saline) 7 of 10 and 10 of 10.
On to `N=C1C=C[C@]2(O)C[C@H](Cl)CN12`, for which the survivor count (dose: 12.0 mg/kg/injection, schedule: Q01DX009 (ip), vehicle: saline) is recorded as 9 of 10.
With `CC(=O)NC(Cc1ccccc1)C(=O)NC(Cc1cc(I)c(O)c(I)c1)C(=O)O` (stereo not given) (Ac-Phe-[Tyr(3,5-I2)]-OH; configuration not given here), the survivor count is, setting by setting: under setting [1], 10 of 10; under setting [2], 9 of 10.
With `CNC[C@@H](O)c1ccc(O)c(O)c1`, the survivor count is, setting by setting: (dose: 6.0 mg/kg/injection, schedule: Q01DX009 (ip), vehicle: suspension in saline) 3 of 10; (dose: 12.0 mg/kg/injection, schedule: Q01DX009 (ip), vehicle: suspension in saline) 0 of 10.
On to `O=C(NNC(=O)c1cccc(C(=O)NNC(=O)c2ccc(Cl)c(Cl)c2)n1)c1ccc(Cl)c(Cl)c1`, for which the survivor count is on record as 8 of 10 (dose: 25.0 mg/kg/injection, schedule: Q01DX009 (ip), vehicle: Klucel (hydroxypropylcellulose) (HPC)) and 8 of 10 under setting [2].
For `COc1cc2c(c3c1c(=O)c1cccc(F)c1n3C)C=CC(C)(C)O2`, the survivor count under setting [2] is listed as 10 of 10 and the survivor count under setting [3] was 10 of 10.
`Cc1c2ccc3ccccc3c2c[n+]2ccccc12`: where the note is “dose: 40.0 mg/kg/injection, schedule: Q01DX009 (ip), vehicle: Klucel (hydroxypropylcellulose) (HPC)”, the survivor count is given as 3 of 10.
On to `CN=C(N)N/N=C(\C)c1ccc2c(c1)Cc1cc(/C(C)=N/NC(N)=NC)ccc1-2`, for which the survivor count runs as follows: (dose: 3.0 mg/kg/injection, schedule: Q01DX009 (ip), vehicle: saline with Tween-80) 10 of 10; (dose: 6.0 mg/kg/injection, schedule: Q01DX009 (ip), vehicle: saline with Tween-80) 7 of 10; (dose: 12.0 mg/kg/injection, schedule: Q01DX009 (ip), vehicle: saline with Tween-80) 2 of 10.
Turning to `COC1/C=C/O[C@@]2(C)Oc3c(C)c(O)c4c(O)c(cc(O)c4c3C2=O)NC(=O)/C(C)=C\C=C\[C@H](C)C(O)[C@@H](C)[C@@H](O)[C@@H](C)[C@H](OC(C)=O)[C@@H]1C` (stereo not given in full), the survivor count by setting is: (dose: 200.0 mg/kg/injection, schedule: Q01DX009 (ip), vehicle: saline with Tween-80) 10 of 10; (dose: 400.0 mg/kg/injection, schedule: Q01DX009 (ip), vehicle: saline with Tween-80) 10 of 10.
